For assay [1], the target named is MBP-SHIP164_(1312–1464) (human) (UniProt A0JNW5). Put plainly: SEC; eluate of the amylose resin run over a Superdex S200 column; fractions analysed by SDS-PAGE and Coomassie staining; both purified.
Assay [2] shares this target. Put plainly: pull-down; both proteins co-expressed in E. coli from a polycistronic plasmid; lysate on amylose resin 1 h at 4°C, washed in 25 mM Tris pH 7.5, 200 mM NaCl, 1 mM BME, eluted with 10 mM maltose.

Amino acid sequences for entries named in this document (tags omitted). Residues count along the entry.
UniProt A0JNW5, residues 1312-1464: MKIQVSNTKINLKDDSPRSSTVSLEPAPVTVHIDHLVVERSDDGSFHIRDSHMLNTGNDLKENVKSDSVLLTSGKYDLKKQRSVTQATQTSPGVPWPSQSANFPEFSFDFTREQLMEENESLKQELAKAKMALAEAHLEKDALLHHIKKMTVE
UniProt P63167: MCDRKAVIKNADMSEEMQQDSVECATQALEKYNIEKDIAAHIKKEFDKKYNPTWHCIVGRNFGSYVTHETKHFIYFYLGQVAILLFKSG

Results are given in words; binding and its absence hold for the method and conditions named. For some assays here: In cells and extracts the contact can be indirect. Some entries that bind do so weakly or less than the wild type.

On to “untagged LC8 (DYNLL1) (from UniProt P63167 1-89)”, for which the binding result in assay [1] and in assay [2] was “binds” throughout.
